Measurements from PubChem BioAssay AID624161 (National Center for Advancing Translational Sciences (NCATS), 2012).
The shares of active, inactive and inconclusive entries below differ from those in the screen. Potencies of inconclusive entries are doubtful fits and often do not repeat. Activity calls are given as the source filed them. The call rests on the fitted dose curve; in most records, active means well fitted inhibition curve with a large enough effect; inconclusive means small, poorly fitted or top-dose-only effect; inactive means no such curve, though single readings can be large or run the other way.

The chains behind the UniProt entries cited, without tags or fusion partners.
UniProt Q03164, whole entry, looked up: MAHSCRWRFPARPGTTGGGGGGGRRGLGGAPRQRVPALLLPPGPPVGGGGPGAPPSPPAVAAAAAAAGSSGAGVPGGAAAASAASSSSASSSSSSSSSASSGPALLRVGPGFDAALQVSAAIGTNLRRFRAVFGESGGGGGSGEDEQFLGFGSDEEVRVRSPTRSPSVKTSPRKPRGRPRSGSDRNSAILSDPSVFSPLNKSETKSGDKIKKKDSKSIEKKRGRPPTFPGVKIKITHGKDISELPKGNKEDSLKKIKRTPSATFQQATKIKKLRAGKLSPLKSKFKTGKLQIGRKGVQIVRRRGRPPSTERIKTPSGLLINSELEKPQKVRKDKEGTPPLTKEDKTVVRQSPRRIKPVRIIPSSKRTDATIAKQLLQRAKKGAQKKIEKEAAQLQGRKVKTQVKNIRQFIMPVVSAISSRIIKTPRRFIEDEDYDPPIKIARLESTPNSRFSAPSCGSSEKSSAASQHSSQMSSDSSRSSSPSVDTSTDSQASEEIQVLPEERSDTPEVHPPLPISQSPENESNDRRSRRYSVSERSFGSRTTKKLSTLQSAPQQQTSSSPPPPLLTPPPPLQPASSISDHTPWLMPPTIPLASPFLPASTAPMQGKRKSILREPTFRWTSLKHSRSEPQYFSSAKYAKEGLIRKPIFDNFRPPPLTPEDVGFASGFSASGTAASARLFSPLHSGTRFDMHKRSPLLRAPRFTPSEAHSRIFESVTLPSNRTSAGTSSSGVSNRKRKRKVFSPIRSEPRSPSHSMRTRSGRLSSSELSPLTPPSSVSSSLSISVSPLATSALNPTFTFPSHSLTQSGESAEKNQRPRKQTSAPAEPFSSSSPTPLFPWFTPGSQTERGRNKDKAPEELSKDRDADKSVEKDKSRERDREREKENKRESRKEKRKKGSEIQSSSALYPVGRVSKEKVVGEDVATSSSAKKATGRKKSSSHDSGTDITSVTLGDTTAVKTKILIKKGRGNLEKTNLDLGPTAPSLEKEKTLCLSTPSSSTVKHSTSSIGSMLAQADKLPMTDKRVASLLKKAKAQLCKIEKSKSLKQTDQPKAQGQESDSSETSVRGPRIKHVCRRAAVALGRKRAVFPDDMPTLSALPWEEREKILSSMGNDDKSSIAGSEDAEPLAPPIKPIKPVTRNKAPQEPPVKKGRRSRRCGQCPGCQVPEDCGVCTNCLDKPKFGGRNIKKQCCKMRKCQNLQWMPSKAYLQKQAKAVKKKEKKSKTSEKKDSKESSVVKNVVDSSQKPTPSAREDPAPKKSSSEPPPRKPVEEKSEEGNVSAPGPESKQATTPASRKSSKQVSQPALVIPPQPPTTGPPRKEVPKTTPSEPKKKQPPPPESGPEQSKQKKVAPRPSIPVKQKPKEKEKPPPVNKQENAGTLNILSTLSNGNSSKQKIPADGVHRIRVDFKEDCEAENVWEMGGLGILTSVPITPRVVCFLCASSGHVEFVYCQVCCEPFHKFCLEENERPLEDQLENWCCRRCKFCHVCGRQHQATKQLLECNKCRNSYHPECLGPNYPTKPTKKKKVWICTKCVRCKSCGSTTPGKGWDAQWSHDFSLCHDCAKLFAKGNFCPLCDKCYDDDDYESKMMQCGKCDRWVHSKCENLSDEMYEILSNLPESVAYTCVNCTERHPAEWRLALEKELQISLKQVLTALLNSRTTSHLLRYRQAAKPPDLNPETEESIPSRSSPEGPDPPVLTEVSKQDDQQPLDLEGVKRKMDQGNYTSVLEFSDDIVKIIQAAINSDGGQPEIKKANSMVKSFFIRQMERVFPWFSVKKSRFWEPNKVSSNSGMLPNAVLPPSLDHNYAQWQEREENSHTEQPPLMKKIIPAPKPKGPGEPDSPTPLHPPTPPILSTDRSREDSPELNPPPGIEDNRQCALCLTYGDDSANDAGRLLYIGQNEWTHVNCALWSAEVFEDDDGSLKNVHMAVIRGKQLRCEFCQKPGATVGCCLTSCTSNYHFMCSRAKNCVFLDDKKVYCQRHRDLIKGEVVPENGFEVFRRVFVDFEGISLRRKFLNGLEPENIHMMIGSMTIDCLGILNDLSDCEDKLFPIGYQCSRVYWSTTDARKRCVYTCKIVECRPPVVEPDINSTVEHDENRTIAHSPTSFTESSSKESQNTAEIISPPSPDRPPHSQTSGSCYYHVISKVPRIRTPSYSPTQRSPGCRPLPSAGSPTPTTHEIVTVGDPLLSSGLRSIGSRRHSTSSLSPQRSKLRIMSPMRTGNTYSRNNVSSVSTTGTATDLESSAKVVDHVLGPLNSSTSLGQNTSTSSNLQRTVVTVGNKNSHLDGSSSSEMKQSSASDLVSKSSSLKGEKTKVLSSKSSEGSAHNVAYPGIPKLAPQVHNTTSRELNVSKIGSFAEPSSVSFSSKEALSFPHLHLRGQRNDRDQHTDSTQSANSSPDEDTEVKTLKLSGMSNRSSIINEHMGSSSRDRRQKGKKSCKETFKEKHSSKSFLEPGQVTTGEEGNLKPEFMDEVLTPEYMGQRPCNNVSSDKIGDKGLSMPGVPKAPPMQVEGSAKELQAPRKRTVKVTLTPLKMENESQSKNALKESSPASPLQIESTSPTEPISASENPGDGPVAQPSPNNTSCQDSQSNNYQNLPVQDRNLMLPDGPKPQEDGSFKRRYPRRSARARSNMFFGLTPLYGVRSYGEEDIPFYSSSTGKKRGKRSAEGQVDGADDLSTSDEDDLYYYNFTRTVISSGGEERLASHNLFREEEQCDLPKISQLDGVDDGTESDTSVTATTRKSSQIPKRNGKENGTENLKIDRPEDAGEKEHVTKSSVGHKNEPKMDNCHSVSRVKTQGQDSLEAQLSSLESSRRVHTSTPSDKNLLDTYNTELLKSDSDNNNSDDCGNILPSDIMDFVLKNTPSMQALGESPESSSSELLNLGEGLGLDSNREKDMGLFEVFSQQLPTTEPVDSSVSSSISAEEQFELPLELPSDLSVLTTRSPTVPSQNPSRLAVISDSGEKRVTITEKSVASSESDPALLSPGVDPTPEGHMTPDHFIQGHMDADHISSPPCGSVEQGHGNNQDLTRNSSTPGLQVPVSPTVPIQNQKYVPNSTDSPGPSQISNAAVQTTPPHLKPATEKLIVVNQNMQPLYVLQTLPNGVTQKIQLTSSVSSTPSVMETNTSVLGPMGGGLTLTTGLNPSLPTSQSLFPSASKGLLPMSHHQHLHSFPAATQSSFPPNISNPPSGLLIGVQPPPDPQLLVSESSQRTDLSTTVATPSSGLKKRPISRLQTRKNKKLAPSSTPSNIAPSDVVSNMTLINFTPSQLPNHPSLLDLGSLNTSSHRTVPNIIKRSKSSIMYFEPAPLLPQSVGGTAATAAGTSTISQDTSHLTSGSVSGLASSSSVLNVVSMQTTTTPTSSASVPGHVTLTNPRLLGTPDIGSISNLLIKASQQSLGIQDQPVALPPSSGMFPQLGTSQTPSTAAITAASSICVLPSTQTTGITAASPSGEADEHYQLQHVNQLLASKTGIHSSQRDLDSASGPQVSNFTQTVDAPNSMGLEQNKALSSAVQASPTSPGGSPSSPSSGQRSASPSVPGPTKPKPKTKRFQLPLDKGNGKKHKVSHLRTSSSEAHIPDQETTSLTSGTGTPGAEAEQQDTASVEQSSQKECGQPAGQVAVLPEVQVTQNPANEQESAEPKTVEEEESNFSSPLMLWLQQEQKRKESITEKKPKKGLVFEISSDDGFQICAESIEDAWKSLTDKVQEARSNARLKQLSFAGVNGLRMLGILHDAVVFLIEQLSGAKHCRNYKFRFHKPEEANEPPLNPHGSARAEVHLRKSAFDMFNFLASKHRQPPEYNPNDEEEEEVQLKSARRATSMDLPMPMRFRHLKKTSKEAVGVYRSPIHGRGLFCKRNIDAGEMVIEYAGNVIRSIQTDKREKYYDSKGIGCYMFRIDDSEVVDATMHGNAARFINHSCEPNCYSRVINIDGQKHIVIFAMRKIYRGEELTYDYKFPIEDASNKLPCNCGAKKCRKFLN

target: Histone-lysine N-methyltransferase 2A (Homo sapiens) (UniProt Q03164); experiment: qHTS Fluorescence Polarization (FP) Assay for Inhibitors of MLL CXXC domain - DNA interaction: Texas Red FP; settings: MLL CXXC-DNA binding; series mostly up to 345 µM; activity change, negative = inhibition: at the top concentration; further: nearly all actives have a fitted effect of over 75% in size
Summary of the method: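 MLL-CXXC domain (7 uM solution) preincubated 5 min with compound, then Texas Red-labelled HOX-A9 DNA (50 nM solution) added for 30 min at ambient. Buffer 50 mM Tris-HCl pH 7.5, 50 mM NaCl, 1 mM DTT, 0.05% BSA; fluorescence polarization read.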
On the % scale 0 is the no-effect control and ±100 the full control effect; potency means the concentration at half of the fitted maximal effect.

Question: With COC(=O)c1c(C)[nH]c(C)c1-c1ccc(C)cc1 as the compound, how does the Potency read?
Answer: The Potency was inconclusive: 35.6 µM [inhibitor, partial curve].

Question: With O=c1c(Cl)c2oc3ccccc3nc-2c2ccccc12 as the compound, how does the Potency read?
Answer: The Potency was inconclusive: 22.5 µM [inhibitor, full curve].

Question: With Cn1nc(-c2ccc(Cl)cc2)nc2c(=O)n(C)c(=O)nc1-2 as the compound, how does the Potency read?
Answer: Its Potency is inconclusive: 2.25 µM [inhibitor, full curve].

Question: Cc1cccc(-n2c(C)cc(C=C3C(=O)c4ccccc4C3=O)c2C)c1 was tested. Which Potency did it give?
Answer: Its Potency is inconclusive: 113 µM [inhibitor, partial curve].

Question: Which Potency does the source give for CCN(CC)c1ccc2cc(-c3nc(-c4ccc(OC)cc4)cs3)c(=O)oc2c1 here?
Answer: Its Potency is inconclusive: 2.52 µM [inhibitor, full curve].

Question: CNC(=O)c1cc(Nc2nnc(-c3ccc(C)c(S(N)(=O)=O)c3)c3ccccc23)ccc1OC was tested. Which “activity change, negative = inhibition” value did it give?
Answer: The value was inactive: 14.3%.

Question: With CCSc1nnc(NC(=O)c2nc(S(=O)(=O)Cc3ccc(F)cc3)ncc2Cl)s1 as the compound, how does the Potency read?
Answer: The Potency was active: 100 µM.

Question: How did the “activity change, negative = inhibition” value turn out when CCOC(=O)c1c(NC(C)=O)sc2c(OCCN(CC)CC)c(Br)ccc12 was run?
Answer: The value was inactive: 4.86%.

Question: For O=C(CC(C(=O)N1CCc2ccccc21)n1ccnc1)N1CCc2ccccc2C1 (stereo unspecified), which “activity change, negative = inhibition” value is on record?
Answer: Its value is inactive: 10.5%.

Question: How did the Potency turn out when CC1=NN(c2ccccc2)C(=O)/C1=C/c1cccc(C)c1 was run?
Answer: Its Potency is inconclusive: 126 µM [inhibitor, partial curve].

Question: With C#CCOCCOCCOCCNc1nc(N2CCN(C(=O)[C@H](CCCCN)n3cc([C@@H](N)C(C)CC)nn3)CC2)nc(N2CCN(C(=O)[C@H](CCCCN)n3cc([C@@H](N)CO)nn3)CC2)n1 (stereo partly specified) as the compound, how does the “activity change, negative = inhibition” value read?
Answer: The value was inactive: 4.28%.
